Experimental data as given in article PMC12089419.

Target: T1, Myc-DACH1-FL (human) (UniProt Q9UI36)
T1 sequence: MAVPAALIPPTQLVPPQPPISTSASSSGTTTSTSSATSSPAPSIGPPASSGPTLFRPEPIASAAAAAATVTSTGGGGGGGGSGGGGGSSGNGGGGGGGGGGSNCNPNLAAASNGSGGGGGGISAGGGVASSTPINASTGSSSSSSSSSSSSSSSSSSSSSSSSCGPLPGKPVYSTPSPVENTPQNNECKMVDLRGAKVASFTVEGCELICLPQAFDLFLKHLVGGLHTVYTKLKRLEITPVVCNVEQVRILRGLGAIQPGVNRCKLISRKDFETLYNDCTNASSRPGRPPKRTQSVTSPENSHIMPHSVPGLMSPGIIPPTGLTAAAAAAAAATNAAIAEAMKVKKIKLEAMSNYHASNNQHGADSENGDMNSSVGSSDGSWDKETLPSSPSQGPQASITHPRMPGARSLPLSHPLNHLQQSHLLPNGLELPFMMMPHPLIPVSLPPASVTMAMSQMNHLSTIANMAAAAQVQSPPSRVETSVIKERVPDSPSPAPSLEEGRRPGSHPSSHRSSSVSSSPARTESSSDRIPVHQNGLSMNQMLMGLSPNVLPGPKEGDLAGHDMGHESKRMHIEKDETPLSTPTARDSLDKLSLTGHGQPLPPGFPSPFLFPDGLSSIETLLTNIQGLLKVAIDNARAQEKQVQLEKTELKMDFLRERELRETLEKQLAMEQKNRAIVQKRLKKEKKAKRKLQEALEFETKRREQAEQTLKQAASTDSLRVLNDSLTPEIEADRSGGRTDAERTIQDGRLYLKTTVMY
Assay: affinity purification with mass spectrometry; Myc-DACH1 stably expressed in HCT8 cells; whole cell extracts purified with anti-Myc affinity beads, then mass spectrometry

B1: E3 ubiquitin-protein ligase UHRF1 (endogenous) (enzyme, UniProt Q96T88 1-793)
chain: MWIQVRTMDGRQTHTVDSLSRLTKVEELRRKIQELFHVEPGLQRLFYRGKQMEDGHTLFDYEVRLNDTIQLLVRQSLVLPHSTKERDSELSDTDSGCCLGQSESDKSSTHGEAAAETDSRPADEDMWDETELGLYKVNEYVDARDTNMGAWFEAQVVRVTRKAPSRDEPCSSTSRPALEEDVIYHVKYDDYPENGVVQMNSRDVRARARTIIKWQDLEVGQVVMLNYNPDNPKERGFWYDAEISRKRETRTARELYANVVLGDDSLNDCRIIFVDEVFKIERPGEGSPMVDNPMRRKSGPSCKHCKDDVNRLCRVCACHLCGGRQDPDKQLMCDECDMAFHIYCLDPPLSSVPSEDEWYCPECRNDASEVVLAGERLRESKKKAKMASATSSSQRDWGKGMACVGRTKECTIVPSNHYGPIPGIPVGTMWRFRVQVSESGVHRPHVAGIHGRSNDGAYSLVLAGGYEDDVDHGNFFTYTGSGGRDLSGNKRTAEQSCDQKLTNTNRALALNCFAPINDQEGAEAKDWRSGKPVRVVRNVKGGKNSKYAPAEGNRYDGIYKVVKYWPEKGKSGFLVWRYLLRRDDDEPGPWTKEGKDRIKKLGLTMQYPEGYLEALANREREKENSKREEEEQQEGGFASPRTGKGKWKRKSAGGGPSRAGSPRRTSKKTKVEPYSLTAQQSSLIREDKSNAKLWNEVLASLKDRPASGSPFQLFLSKVEETFQCICCQELVFRPITTVCQHNVCKDCLDRSFRAQVFSCPACRYDLGRSYAMQVNQPLQTVLNQLFPGYGNGR
binding: binds

These are yes or no findings as the source states them, for the method shown. In cells and extracts the contact can be indirect. Here binding means that the protein was enriched with, or labelled near, the bait; the list need not be complete. Where a sequence is shown, tags or fusion partners need not be part of it.
